PubChem BioAssay AID1053208 – Peter MacCallum Cancer Centre – 2014
Aim: 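Genes whose silencing cuts survival of bone tumour cells only with doxorubicin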 (primary screen). System: mouse osteosarcoma cells, early-passage culture from an engineered mouse model of fibroblastic bone tumour. Knock-down reagent: siRNA pool against mouse genes, 40 nM. Timing: about 120 h (48 h before drug, then 72 h with drug). Treatment: doxorubicin 100 nM for 72 h, roughly 30-40% inhibitory dose. Detection: 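Viability read as ATP luminescence after 72 h of 100 nM doxorubicin or none, duplicate wells averaged, scaled to non-targeting siRNA, then expressed as robust z-scores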. Scale: viability z-score with doxorubicin: higher = more viable cells under doxorubicin; viability z-score without drug: higher = more viable cells with knock-down alone. Hit rule: 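a pool counts as active when its viability z-score with doxorubicin is -2 or below and its z-score without drug lies between -2 and 2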.
This is a random part of about 17,000 deposited reagents. 788 of them (4.7%) were called active. 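Calls rest on z-score classes alone; an extra cut-off of viability at most 70% of control was not applied to them.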 A number with no mark means an inactive call. Not all columns of the deposit are shown.

With Clptm1 [SID152324188], what was measured?
combined z-score class: low cell count with doxorubicin only (active); viability z-score with doxorubicin: -3.04; viability z-score without drug: -0.51

With Tprg1 [SID152288713], what does the deposit list?
combined z-score class: no change with or without drug; viability z-score with doxorubicin: -1.57; viability z-score without drug: 0.51

With Arhgef28 [SID152304361], what does the deposit list?
combined z-score class: no change with or without drug; viability z-score with doxorubicin: -0.67; viability z-score without drug: -0.17

With F5 [SID152319159], what was measured?
combined z-score class: no change with or without drug; viability z-score with doxorubicin: 0.79; viability z-score without drug: 0.67

For Zic4 [SID152296331], how do the results read?
combined z-score class: no change with or without drug; viability z-score with doxorubicin: 0.56; viability z-score without drug: 1.01

With Prmt7 [SID152331871], what does the deposit list?
combined z-score class: no change with or without drug; viability z-score with doxorubicin: -1.12; viability z-score without drug: 0.17

Which result is listed for Cfap206 [SID152266751]?
combined z-score class: no change with or without drug; viability z-score with doxorubicin: -0.67; viability z-score without drug: 0.67

What is on record for Ccdc38 [SID152312704]?
combined z-score class: no change with or without drug; viability z-score with doxorubicin: 1.8; viability z-score without drug: 1.69

With Usp43 [SID152260230], what was measured?
combined z-score class: no change with or without drug; viability z-score with doxorubicin: -0.56; viability z-score without drug: 1.69

For Katnbl1 [SID152280403], what was measured?
combined z-score class: no change with or without drug; viability z-score with doxorubicin: -1.91; viability z-score without drug: -1.18

Which result is listed for Ugt2b34 [SID152341691]?
combined z-score class: no change with or without drug; viability z-score with doxorubicin: 0.11; viability z-score without drug: 1.69

With Tmem14c [SID152293725], what was measured?
combined z-score class: high cell count with doxorubicin only; viability z-score with doxorubicin: 2.14; viability z-score without drug: 0.17

What did the screen give for Azin2 [SID152261818]?
combined z-score class: no change with or without drug; viability z-score with doxorubicin: -1.69; viability z-score without drug: 0.34

For Plaat1 [SID152305988], what was measured?
combined z-score class: no change with or without drug; viability z-score with doxorubicin: -0.22; viability z-score without drug: 0.17

Which result is listed for Dmtf1 [SID152284599]?
combined z-score class: no change with or without drug; viability z-score with doxorubicin: 0; viability z-score without drug: 0

What is on record for Ap1g1 [SID152279076]?
combined z-score class: no change with or without drug; viability z-score with doxorubicin: 1.46; viability z-score without drug: 1.18

Which result is listed for C1qtnf4 [SID152314648]?
combined z-score class: no change with or without drug; viability z-score with doxorubicin: 0.45; viability z-score without drug: 1.52

With Phf12 [SID152291435], what was measured?
combined z-score class: no change with or without drug; viability z-score with doxorubicin: -0.9; viability z-score without drug: 0

What did the screen give for Loxl2 [SID152327720]?
combined z-score class: high cell count with doxorubicin only; viability z-score with doxorubicin: 2.02; viability z-score without drug: 1.18

With Dmgdh [SID152277519], what does the deposit list?
combined z-score class: no change with or without drug; viability z-score with doxorubicin: 1.12; viability z-score without drug: 0.34

Which result is listed for Krt42 [SID152283946]?
combined z-score class: no change with or without drug; viability z-score with doxorubicin: -0.45; viability z-score without drug: 0.84

With A030003K21Rik [SID152273527], what was measured?
combined z-score class: no change with or without drug; viability z-score with doxorubicin: 0.45; viability z-score without drug: 0.84

With Ncoa7 [SID152322192], how do the results read?
combined z-score class: no change with or without drug; viability z-score with doxorubicin: -0.45; viability z-score without drug: 0.84

What is on record for Selenoi [SID152273516]?
combined z-score class: no change with or without drug; viability z-score with doxorubicin: -0.56; viability z-score without drug: -0.84

What did the screen give for Cnr1 [SID152333004]?
combined z-score class: no change with or without drug; viability z-score with doxorubicin: -0.45; viability z-score without drug: -0.17

With Dffb [SID152314248], what does the deposit list?
combined z-score class: no change with or without drug; viability z-score with doxorubicin: 0.67; viability z-score without drug: -0.17

Which result is listed for Lypd9 [SID152264929]?
combined z-score class: no change with or without drug; viability z-score with doxorubicin: -1.12; viability z-score without drug: -1.52

How did the screen score Spp1 [SID152275437]?
combined z-score class: no change with or without drug; viability z-score with doxorubicin: 1.8; viability z-score without drug: 1.85

With Xlr4b [SID152269491], what does the deposit list?
combined z-score class: no change with or without drug; viability z-score with doxorubicin: 1.35; viability z-score without drug: 1.18

For Hivep2 [SID152282253], what was measured?
combined z-score class: no change with or without drug; viability z-score with doxorubicin: 1.35; viability z-score without drug: 0.51

What did the screen give for Foxl1 [SID152333031]?
combined z-score class: no change with or without drug; viability z-score with doxorubicin: 0; viability z-score without drug: 0.17

For Tmem14a [SID152304055], how do the results read?
combined z-score class: no change with or without drug; viability z-score with doxorubicin: 0.67; viability z-score without drug: 1.52

What did the screen give for Cwf19l2 [SID152324450]?
combined z-score class: no change with or without drug; viability z-score with doxorubicin: 0.45; viability z-score without drug: -0.17

For Ulk4 [SID152319632], what was measured?
combined z-score class: no change with or without drug; viability z-score with doxorubicin: 0.22; viability z-score without drug: 0.67

With Ppig [SID152263791], what does the deposit list?
combined z-score class: no change with or without drug; viability z-score with doxorubicin: 0.45; viability z-score without drug: 0.84

What did the screen give for Fshr [SID152324907]?
combined z-score class: no change with or without drug; viability z-score with doxorubicin: -0.45; viability z-score without drug: 1.18

Reagents listed so far called active, once more:
Clptm1 [SID152324188] | combined z-score class: low cell count with doxorubicin only (active); viability z-score with doxorubicin: -3.04; viability z-score without drug: -0.51
